The list shows a part of the results.
Tests used:
Assay in all cases: log2 fold change, soluble protein after heating vs DMSO (PISA); higher = thermal stabilisation; K562 lysate, 10 uM; active = over 0.2 and 3.5 SD of the protein, either way, in both replicates (recomputed)
[1] = compound: CS(=O)(=O)CCNCc1ccc(-c2ccc3ncnc(Nc4ccc(OCc5cccc(F)c5)c(Cl)c4)c3c2)o1 [lapatinib]
Method in brief: (§1)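 The values are log-two fold changes in thermal stability compared with solvent controls and come from duplicates. They were obtained by TMTpro 16plex LC-MS/MS, with channel sums equalised, on the supernatant after 21,000xg for 90 min. That supernatant came from crude K562 extract at 1 mg/mL protein treated with 10 μM compound for 30 min, heated for 3 min across 48°C-58°C, pooled and brought to 0.5% NP-40 at 4°C.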

Protein sequences, listed by entry. Tags and fused reporters are not part of them. Lines headed by an entry give the natural chain unless they say otherwise; changes in a name come on top.
UniProt P17844: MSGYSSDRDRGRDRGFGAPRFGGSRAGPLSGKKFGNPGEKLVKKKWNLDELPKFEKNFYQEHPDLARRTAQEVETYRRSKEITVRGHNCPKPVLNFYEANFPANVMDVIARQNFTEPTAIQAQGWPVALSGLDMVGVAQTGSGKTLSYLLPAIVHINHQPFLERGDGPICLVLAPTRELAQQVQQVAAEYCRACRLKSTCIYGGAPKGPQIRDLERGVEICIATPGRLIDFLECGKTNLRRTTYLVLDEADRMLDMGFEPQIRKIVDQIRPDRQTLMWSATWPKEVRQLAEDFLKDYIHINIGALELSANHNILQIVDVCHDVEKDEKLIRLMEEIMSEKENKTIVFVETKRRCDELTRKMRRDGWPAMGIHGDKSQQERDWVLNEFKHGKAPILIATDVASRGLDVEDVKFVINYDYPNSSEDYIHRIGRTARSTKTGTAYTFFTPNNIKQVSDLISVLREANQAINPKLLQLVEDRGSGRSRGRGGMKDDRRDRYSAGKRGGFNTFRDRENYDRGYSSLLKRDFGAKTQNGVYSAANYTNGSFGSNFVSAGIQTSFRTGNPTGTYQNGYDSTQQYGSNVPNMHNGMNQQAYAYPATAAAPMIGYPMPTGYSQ
UniProt Q9NWV4: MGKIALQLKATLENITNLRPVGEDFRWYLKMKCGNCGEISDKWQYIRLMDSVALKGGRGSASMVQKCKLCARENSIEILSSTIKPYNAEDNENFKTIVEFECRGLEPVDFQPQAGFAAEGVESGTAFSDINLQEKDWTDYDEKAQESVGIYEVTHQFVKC
UniProt O15121: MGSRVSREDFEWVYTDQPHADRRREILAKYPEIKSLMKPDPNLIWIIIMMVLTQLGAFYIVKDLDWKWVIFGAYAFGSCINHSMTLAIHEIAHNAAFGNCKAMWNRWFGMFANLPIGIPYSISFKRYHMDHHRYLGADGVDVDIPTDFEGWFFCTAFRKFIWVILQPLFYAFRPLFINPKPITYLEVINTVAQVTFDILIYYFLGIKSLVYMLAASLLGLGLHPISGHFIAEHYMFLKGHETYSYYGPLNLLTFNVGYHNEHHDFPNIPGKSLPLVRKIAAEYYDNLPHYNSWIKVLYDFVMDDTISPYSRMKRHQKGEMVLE
UniProt O94830: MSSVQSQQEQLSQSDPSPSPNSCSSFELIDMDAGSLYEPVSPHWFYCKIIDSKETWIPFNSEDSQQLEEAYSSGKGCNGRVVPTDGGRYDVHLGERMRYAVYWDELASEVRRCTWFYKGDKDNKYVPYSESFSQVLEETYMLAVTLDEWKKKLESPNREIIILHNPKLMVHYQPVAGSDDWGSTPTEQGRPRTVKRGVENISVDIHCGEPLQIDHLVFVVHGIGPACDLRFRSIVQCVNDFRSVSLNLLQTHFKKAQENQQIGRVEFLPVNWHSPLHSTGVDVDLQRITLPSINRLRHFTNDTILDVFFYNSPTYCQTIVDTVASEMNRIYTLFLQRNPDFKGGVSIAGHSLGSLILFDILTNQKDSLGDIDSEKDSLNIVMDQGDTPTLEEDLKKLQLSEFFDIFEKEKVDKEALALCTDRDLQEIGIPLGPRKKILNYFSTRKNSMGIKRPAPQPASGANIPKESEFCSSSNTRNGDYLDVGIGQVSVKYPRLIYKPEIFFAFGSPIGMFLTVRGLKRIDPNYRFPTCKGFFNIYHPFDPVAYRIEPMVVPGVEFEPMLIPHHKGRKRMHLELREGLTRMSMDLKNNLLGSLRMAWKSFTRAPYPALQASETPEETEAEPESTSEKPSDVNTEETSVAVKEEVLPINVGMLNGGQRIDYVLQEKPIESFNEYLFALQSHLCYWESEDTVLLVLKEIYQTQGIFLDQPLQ
UniProt Q9UJV9: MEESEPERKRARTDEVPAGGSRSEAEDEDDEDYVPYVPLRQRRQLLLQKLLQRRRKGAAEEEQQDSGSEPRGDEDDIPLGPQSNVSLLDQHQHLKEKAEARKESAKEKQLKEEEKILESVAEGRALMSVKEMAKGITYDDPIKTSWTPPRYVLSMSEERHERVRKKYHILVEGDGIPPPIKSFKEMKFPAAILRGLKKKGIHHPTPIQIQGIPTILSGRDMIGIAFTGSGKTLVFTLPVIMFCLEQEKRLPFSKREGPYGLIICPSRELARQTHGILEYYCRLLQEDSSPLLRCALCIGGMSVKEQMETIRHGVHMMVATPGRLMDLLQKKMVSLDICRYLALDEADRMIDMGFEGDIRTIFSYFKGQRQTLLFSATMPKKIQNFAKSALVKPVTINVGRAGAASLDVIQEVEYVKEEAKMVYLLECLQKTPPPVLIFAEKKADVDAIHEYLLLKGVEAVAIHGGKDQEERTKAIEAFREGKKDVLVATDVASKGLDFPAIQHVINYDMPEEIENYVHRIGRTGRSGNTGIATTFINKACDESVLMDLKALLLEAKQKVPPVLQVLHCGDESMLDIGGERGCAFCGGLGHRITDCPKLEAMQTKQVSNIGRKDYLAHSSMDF
UniProt Q9UER7, whole entry, looked up: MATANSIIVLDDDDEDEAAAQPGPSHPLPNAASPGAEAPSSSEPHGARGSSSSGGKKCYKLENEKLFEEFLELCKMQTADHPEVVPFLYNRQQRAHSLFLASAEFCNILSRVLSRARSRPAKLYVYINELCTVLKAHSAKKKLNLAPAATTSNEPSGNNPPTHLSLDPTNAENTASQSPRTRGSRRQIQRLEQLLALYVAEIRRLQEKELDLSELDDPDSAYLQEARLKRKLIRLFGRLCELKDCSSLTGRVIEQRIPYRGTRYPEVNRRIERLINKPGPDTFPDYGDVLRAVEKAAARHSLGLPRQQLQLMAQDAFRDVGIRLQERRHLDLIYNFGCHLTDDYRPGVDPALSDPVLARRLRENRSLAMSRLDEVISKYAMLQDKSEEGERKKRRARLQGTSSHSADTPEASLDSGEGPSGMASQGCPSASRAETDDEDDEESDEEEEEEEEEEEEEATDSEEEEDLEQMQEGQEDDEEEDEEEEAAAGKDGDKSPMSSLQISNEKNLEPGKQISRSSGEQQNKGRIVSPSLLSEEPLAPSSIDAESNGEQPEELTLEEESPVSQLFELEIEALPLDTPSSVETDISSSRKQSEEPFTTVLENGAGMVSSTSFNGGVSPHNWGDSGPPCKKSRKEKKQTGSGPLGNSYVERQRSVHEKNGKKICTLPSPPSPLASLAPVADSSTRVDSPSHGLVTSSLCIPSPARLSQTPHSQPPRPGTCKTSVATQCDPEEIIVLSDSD
UniProt Q8IZD4: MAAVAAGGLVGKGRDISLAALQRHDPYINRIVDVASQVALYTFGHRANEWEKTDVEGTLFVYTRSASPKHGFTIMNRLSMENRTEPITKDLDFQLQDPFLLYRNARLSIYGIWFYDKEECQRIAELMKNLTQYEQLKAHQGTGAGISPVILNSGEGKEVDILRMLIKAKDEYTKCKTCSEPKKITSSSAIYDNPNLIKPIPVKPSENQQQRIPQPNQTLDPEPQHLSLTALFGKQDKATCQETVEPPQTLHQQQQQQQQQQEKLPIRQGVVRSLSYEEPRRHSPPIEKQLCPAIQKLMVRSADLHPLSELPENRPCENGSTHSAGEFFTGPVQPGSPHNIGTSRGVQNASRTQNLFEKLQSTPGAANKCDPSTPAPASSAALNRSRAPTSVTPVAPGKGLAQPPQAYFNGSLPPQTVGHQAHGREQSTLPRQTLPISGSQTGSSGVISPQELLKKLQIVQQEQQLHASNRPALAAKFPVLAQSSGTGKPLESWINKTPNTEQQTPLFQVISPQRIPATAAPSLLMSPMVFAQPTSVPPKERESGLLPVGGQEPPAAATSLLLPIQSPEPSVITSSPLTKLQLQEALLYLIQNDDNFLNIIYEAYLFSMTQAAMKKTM
UniProt Q96JK2, whole entry, looked up: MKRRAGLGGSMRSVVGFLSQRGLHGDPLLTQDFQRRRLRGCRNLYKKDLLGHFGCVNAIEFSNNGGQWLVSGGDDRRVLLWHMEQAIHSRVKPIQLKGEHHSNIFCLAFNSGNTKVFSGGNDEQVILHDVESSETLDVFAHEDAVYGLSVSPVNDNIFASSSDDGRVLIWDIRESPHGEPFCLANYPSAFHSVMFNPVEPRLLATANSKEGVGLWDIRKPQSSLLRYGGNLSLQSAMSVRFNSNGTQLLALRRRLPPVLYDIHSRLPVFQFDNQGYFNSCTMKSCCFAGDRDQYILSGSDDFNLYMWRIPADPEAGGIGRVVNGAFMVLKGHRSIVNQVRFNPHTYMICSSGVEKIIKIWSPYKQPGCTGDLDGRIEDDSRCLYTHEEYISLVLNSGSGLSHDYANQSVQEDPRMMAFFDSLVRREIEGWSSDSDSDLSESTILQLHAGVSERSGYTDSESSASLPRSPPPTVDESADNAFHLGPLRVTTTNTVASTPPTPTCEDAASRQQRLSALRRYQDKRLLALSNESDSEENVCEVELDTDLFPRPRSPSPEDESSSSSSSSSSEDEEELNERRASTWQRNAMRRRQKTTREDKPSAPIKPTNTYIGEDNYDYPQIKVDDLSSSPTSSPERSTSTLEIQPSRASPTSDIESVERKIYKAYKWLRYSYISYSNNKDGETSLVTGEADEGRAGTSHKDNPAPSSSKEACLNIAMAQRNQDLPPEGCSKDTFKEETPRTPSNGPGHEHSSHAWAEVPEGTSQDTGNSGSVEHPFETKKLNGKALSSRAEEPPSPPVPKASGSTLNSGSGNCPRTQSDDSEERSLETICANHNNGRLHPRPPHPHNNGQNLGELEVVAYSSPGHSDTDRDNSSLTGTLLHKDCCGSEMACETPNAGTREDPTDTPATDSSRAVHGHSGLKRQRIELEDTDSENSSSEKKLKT
UniProt Q16531, whole entry, looked up: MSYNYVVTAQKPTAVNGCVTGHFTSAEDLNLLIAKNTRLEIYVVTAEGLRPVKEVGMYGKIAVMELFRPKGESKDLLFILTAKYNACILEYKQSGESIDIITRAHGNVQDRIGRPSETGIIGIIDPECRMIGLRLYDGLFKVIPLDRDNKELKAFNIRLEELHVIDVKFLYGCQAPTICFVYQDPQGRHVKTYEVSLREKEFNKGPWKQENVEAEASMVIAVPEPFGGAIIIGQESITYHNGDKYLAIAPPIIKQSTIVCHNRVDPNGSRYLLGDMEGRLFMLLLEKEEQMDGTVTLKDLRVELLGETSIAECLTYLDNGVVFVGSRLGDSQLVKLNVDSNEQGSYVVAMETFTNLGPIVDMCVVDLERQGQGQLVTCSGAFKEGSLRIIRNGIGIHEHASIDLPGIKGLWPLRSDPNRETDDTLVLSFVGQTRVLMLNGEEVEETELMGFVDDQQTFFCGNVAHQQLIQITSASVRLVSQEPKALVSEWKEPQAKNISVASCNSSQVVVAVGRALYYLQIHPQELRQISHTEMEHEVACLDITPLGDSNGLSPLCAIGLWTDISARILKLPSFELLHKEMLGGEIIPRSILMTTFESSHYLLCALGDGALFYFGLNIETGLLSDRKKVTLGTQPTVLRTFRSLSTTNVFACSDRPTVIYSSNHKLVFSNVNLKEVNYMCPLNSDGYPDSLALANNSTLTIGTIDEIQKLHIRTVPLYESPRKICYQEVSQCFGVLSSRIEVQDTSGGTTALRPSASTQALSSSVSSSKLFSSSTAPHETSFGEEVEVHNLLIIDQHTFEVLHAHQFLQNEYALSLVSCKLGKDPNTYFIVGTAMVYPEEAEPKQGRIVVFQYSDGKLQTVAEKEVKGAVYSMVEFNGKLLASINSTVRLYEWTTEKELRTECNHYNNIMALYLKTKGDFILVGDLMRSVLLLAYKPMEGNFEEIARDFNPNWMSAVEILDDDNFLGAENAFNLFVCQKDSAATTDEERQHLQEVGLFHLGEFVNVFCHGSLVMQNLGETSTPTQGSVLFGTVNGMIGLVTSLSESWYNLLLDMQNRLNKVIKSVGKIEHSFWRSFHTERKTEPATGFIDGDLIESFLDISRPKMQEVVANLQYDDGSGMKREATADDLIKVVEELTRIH
UniProt Q96QD5: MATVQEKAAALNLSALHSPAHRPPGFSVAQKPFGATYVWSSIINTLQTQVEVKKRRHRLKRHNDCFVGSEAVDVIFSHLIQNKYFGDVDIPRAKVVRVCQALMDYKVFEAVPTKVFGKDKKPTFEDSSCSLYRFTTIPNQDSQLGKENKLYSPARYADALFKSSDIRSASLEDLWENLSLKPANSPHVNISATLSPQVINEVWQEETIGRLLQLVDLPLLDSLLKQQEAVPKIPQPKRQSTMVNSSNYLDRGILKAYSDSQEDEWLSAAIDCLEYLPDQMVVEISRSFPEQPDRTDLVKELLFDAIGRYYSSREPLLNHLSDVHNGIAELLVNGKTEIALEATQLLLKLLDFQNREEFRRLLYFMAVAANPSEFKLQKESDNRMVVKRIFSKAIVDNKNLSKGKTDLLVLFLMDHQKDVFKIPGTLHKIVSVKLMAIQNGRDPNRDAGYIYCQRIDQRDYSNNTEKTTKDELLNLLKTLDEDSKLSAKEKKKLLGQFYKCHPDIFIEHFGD
UniProt P35638, whole entry, looked up: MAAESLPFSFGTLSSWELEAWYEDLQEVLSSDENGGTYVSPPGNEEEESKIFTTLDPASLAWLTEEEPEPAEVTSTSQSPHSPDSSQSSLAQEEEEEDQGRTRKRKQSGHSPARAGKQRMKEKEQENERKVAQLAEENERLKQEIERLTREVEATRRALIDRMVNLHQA

[2] = compound: CS(=O)(=O)N1CCN(Cc2cc3nc(-c4cccc5[nH]ncc45)nc(N4CCOCC4)c3s2)CC1 [pictilisib]
Method in brief: as §1

[3] = compound: C[C@@H](Oc1cc(-c2cnn(C3CCNCC3)c2)cnc1N)c1c(Cl)ccc(F)c1Cl [crizotinib]
Method in brief: as §1

[4] = compound: C[C@H](C1=CC=C(C=C1)C(=O)NC2=C3C=CNC3=NC=C2)N
Method in brief: as §1

[5] = compound: C[C@H](Nc1ncnc2nc[nH]c12)c1cc2cccc(Cl)c2c(=O)n1-c1ccccc1 [duvelisib]
Method in brief: as §1

[6] = compound: Cc1cc(Nc2cc(CN3CCOCC3)c3nc(C)c(Cc4ccc(Cl)cc4F)n3n2)n[nH]1 [gandotinib]
Method in brief: as §1

[7] = compound: Cc1cc(Nc2cc(N3CCN(C)CC3)nc(Sc3ccc(NC(=O)C4CC4)cc3)n2)n[nH]1 [tozasertib]
Method in brief: as §1

[8] = compound: Cc1ccc(-n2nc(C(C)(C)C)cc2NC(=O)Nc2ccc(OCCN3CCOCC3)c3ccccc23)cc1 [doramapimod]
Method in brief: as §1

[9] = compound: Cc1ccc(NC(=O)c2ccc(CN3CC[C@H](N(C)C)C3)c(C(F)(F)F)c2)cc1Nc1nccc(-c2cncnc2)n1 [bafetinib]
Method in brief: as §1

[10] = compound: Cc1cccc(CC(=O)N2CCc3c2ccc(-c2cn(C)c4ncnc(N)c24)c3F)n1
Method in brief: as §1

Target | log2 fold change [1] | log2 fold change [2] | log2 fold change [3] | log2 fold change [4] | log2 fold change [5] | log2 fold change [6] | log2 fold change [7] | log2 fold change [8] | log2 fold change [9] | log2 fold change [10]
DCUN1D1 (UniProt Q96GG9) | inactive: 0 | inactive: -0.006 | inactive: 0.023 | inactive: 0.006 | inactive: 0.009 | inactive: -0.008 | inactive: -0.035 | inactive: -0.001 | inactive: 0.026 | inactive: -0.034
DDX5 (UniProt P17844) | inactive: -0.007 | inactive: 0 | inactive: -0.004 | inactive: 0 | inactive: -0.012 | inactive: -0.117 | inactive: 0.027 | inactive: 0.083 | inactive: 0.001 | inactive: -0.02
CYTH1 (UniProt Q15438) | inactive: 0.145 | inactive: -0.031 | inactive: 0.029 | inactive: -0.017 | – | inactive: 0.022 | inactive: -0.077 | inactive: -0.013 | inactive: -0.052 | inactive: 0.089
DENND10 (UniProt Q8TCE6) | inactive: -0.016 | inactive: -0.047 | inactive: -0.075 | inactive: -0.014 | inactive: 0.051 | inactive: -0.027 | inactive: 0.027 | inactive: 0.004 | inactive: -0.003 | inactive: -0.078
DCTN4 (UniProt Q9UJW0) | inactive: 0.008 | inactive: 0.022 | inactive: 0.018 | inactive: -0.009 | inactive: 0.046 | inactive: 0.033 | inactive: 0.048 | inactive: 0.043 | inactive: 0.029 | inactive: 0
CZIB (UniProt Q9NWV4) | inactive: 0.025 | inactive: 0.027 | inactive: 0.08 | inactive: 0.058 | inactive: 0.028 | inactive: 0 | inactive: 0 | inactive: -0.017 | inactive: 0 | inactive: -0.044
DEGS1 (UniProt O15121) | inactive: 0.014 | inactive: 0 | inactive: 0.022 | inactive: 0.031 | inactive: 0.017 | inactive: -0.016 | inactive: -0.08 | inactive: -0.053 | inactive: -0.184 | inactive: -0.087
DFFA isoform 2 (UniProt O00273) | inactive: -0.069 | inactive: 0.127 | inactive: -0.056 | inactive: 0.094 | inactive: -0.069 | inactive: 0.008 | – | inactive: 0.034 | inactive: -0.039 | inactive: -0.1
DCAF16 (UniProt Q9NXF7) | inactive: -0.012 | inactive: 0.048 | inactive: -0.072 | inactive: 0.128 | inactive: 0.031 | inactive: -0.092 | inactive: -0.139 | inactive: -0.035 | inactive: -0.017 | inactive: -0.057
DAAM1 (UniProt Q9Y4D1) | inactive: 0.054 | inactive: 0.03 | inactive: -0.174 | inactive: 0.184 | inactive: -0.017 | inactive: -0.07 | – | inactive: -0.083 | inactive: -0.015 | inactive: 0.144
DDHD2 (UniProt O94830) | inactive: 0.011 | inactive: -0.004 | inactive: -0.039 | inactive: -0.004 | inactive: 0.004 | inactive: -0.043 | inactive: 0.014 | inactive: 0.028 | inactive: -0.011 | inactive: -0.012
DERA (UniProt Q9Y315) | inactive: -0.002 | inactive: -0.028 | inactive: -0.015 | active: 0.732 | inactive: -0.004 | inactive: -0.072 | inactive: -0.028 | inactive: -0.001 | inactive: 0.012 | inactive: -0.132
DENND1A isoform 6 (UniProt Q8TEH3) | inactive: -0.127 | inactive: -0.019 | inactive: -0.149 | – | inactive: -0.028 | – | inactive: -0.039 | inactive: 0.034 | inactive: 0.041 | –
DCUN1D1 (UniProt C9JVE2) | inactive: -0.028 | inactive: -0.178 | inactive: -0.307 | – | inactive: 0.057 | – | inactive: -0.285 | inactive: 0.004 | inactive: 0.036 | –
DDX59 (UniProt Q5T1V6) | inactive: -0.005 | inactive: -0.009 | inactive: 0.004 | inactive: -0.045 | inactive: -0.028 | inactive: -0.005 | inactive: 0.026 | inactive: 0.049 | inactive: 0.029 | inactive: 0.024
DDX41 (UniProt Q9UJV9) | inactive: 0.019 | inactive: 0.015 | inactive: -0.051 | inactive: -0.03 | inactive: -0.02 | inactive: 0.009 | inactive: -0.049 | inactive: 0.042 | inactive: 0.002 | inactive: 0.059
DDX1 (UniProt Q92499) | inactive: 0.007 | inactive: -0.006 | inactive: -0.039 | inactive: -0.013 | inactive: -0.011 | inactive: -0.004 | inactive: -0.001 | inactive: 0.013 | inactive: -0.018 | inactive: -0.018

Two entries picked at random from the list so far, as already listed:
Target | log2 fold change [1] | log2 fold change [2] | log2 fold change [3] | log2 fold change [4] | log2 fold change [5] | log2 fold change [6] | log2 fold change [7] | log2 fold change [8] | log2 fold change [9] | log2 fold change [10]
DDX5 (UniProt P17844) | inactive: -0.007 | inactive: 0 | inactive: -0.004 | inactive: 0 | inactive: -0.012 | inactive: -0.117 | inactive: 0.027 | inactive: 0.083 | inactive: 0.001 | inactive: -0.02
DDHD2 (UniProt O94830) | inactive: 0.011 | inactive: -0.004 | inactive: -0.039 | inactive: -0.004 | inactive: 0.004 | inactive: -0.043 | inactive: 0.014 | inactive: 0.028 | inactive: -0.011 | inactive: -0.012

More entries:

Target | log2 fold change [1] | log2 fold change [2] | log2 fold change [3] | log2 fold change [4] | log2 fold change [5] | log2 fold change [6] | log2 fold change [7] | log2 fold change [8] | log2 fold change [9] | log2 fold change [10]
DBR1 (UniProt Q9UK59) | inactive: -0.028 | inactive: 0.005 | inactive: 0.013 | inactive: -0.184 | inactive: 0.005 | inactive: 0.059 | inactive: 0.004 | inactive: 0.04 | inactive: -0.039 | inactive: 0.07
DAXX (UniProt Q9UER7) | inactive: -0.061 | inactive: 0.006 | inactive: -0.036 | inactive: -0.011 | inactive: -0.007 | inactive: 0.04 | inactive: -0.009 | inactive: -0.014 | inactive: 0.014 | inactive: 0.062
DDX60L (UniProt Q5H9U9) | inactive: 0.075 | – | – | – | inactive: 0.121 | – | – | – | – | –
DENND5B isoform 2 (UniProt Q6ZUT9) | – | inactive: 0.091 | – | inactive: -0.348 | inactive: 0.079 | inactive: 0.228 | – | – | inactive: -0.384 | inactive: 0.465
DCP1B (UniProt Q8IZD4) | – | inactive: -0.076 | inactive: 0.012 | inactive: -0.012 | inactive: -0.026 | inactive: -0.014 | inactive: -0.036 | inactive: -0.218 | inactive: 0.013 | inactive: 0.081
DALRD3 (UniProt Q5D0E6) | inactive: 0.021 | – | – | inactive: -0.131 | – | inactive: -0.087 | inactive: 0.139 | – | – | inactive: 0.096
DCLRE1C (UniProt Q96SD1) | inactive: 0.124 | – | inactive: 0.028 | inactive: -0.187 | – | inactive: -0.033 | – | inactive: 0.036 | – | inactive: -0.031
DCAF5 (UniProt Q96JK2) | – | – | inactive: -0.031 | – | inactive: -0.037 | – | – | inactive: 0.009 | – | –
DDB1 isoform 2 (UniProt Q16531) | inactive: -0.119 | – | – | inactive: -0.904 | – | inactive: 0.188 | – | – | – | inactive: 0.349
DEPDC7 (UniProt Q96QD5) | – | – | – | inactive: -0.141 | – | inactive: -0.378 | inactive: -0.015 | – | – | inactive: 0.075
DDAH1 (UniProt O94760) | inactive: 0.011 | – | inactive: 0 | inactive: 0.059 | inactive: 0.186 | inactive: -0.039 | inactive: -0.044 | inactive: -0.058 | – | inactive: 0.196
DAPK1 isoform 3 (UniProt P53355) | inactive: 0.042 | – | inactive: 0.022 | inactive: 0.188 | inactive: 0.042 | inactive: 0.058 | – | inactive: -0.141 | – | inactive: -0.383
DDIT3 isoform 2 (UniProt P35638) | – | – | inactive: -0.104 | – | – | – | inactive: 0.013 | inactive: -0.043 | – | –
DDR1 isoform 5 (UniProt Q08345) | – | inactive: -0.075 | active: -0.712 | inactive: 0.097 | inactive: -0.051 | inactive: -0.305 | – | – | inactive: 0.101 | inactive: 0.007
CYP2S1 isoform 2 (UniProt Q96SQ9) | inactive: 0.316 | – | inactive: 0.023 | – | inactive: -0.075 | – | inactive: -0.023 | inactive: -0.057 | – | –
DDX39B (UniProt F6R6M7) | – | – | – | inactive: -0.116 | – | inactive: -0.076 | – | – | – | inactive: -0.081
DDX11 (UniProt Q96FC9) | – | – | inactive: -0.078 | inactive: -0.22 | inactive: 0.046 | inactive: 0.064 | – | inactive: 0.171 | – | inactive: 0.016

— the supplement of paper PMC10849652
